Results deposited as PubChem BioAssay AID504804 (Drosophila RNAi Screening Center, 2011)
Assay: 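dsRNAs that improve Kc cell survival under doxorubicin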 (primary screen). Cells: Drosophila Kc cells. Knock-down reagent: long dsRNA against Drosophila genes, 0.5 µg dsRNA per well. Timing: 96 h (48 h knock-down, then 48 h drug). Conditions: doxorubicin 5 µg/ml for 48 h, added 48 h after dsRNA. Measured: 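Luminescent ATP counts per replicate, not normalised, reflecting viable cells after 48 h dsRNA knock-down followed by 48 h of 5 µg/ml doxorubicin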. Scale: raw ATP luminescence: higher = more viable cells, protection from doxorubicin. Call rule: 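Active when both duplicate wells lie at least 2 SD above the plate mean and protection is confirmed by rescreening and independent dsRNAs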.
In all, the deposit lists about 19,000 reagents; this is an unselected part of those that have a named target and a result. Over the whole deposit, 47 (0.25%) were called active. 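Signals are raw, not normalised; exact z-scores behind calls not deposited; actives needed confirmation, so some wells reaching 2 SD are inactive.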 Unmarked entries are inactive.

| target gene | dsRNA | SD above plate mean | raw ATP luminescence, replicate 1 | raw ATP luminescence, replicate 2 |
| --- | --- | --- | --- | --- |
| BaraC | DRSC03885 | 2 to 3 SD above plate mean (active) | 1.08e5 | 88780 |
| Ssrp | DRSC04658 | – | 73447 | 99803 |
| caps | DRSC11333 | – | 78723 | 56787 |
| Dyb | DRSC07208 | – | 55470 | 62467 |
| CG31145 | DRSC13634 | – | 2.10e5 | 1.89e5 |
| CG31145 | DRSC14206 | – | 54810 | 56770 |
| CG31145 | DRSC14670 | – | 20550 | 20250 |
| CG31145 | DRSC14671 | – | 55770 | 39440 |
| Eip78C | DRSC11864 | – | 29523 | 28063 |
| anne | DRSC17103 | – | 1.42e5 | 2.08e5 |
| Rack1 | DRSC03405 | – | 41097 | 77857 |
| CG14331 | DRSC14810 | – | 82540 | 73080 |
| CG13744 | DRSC06415 | – | 42310 | 86460 |
| HP1b | DRSC18418 | – | 3.78e5 | 3.24e5 |
| TwdlN | DRSC15813 | – | 31680 | 39890 |
| Dh44-R1 | DRSC07172 | – | 47110 | 39223 |
| CG7560 | DRSC10879 | – | 56220 | 70053 |
| mRpS17 | DRSC04463 | – | 35150 | 51863 |
| CG11723 | DRSC00324 | – | 98613 | 82900 |
| Membrin | DRSC10448 | – | 86137 | 75450 |
| CG8870 | DRSC16452 | – | 86270 | 85850 |
| cni | DRSC03512 | – | 48807 | 70920 |
| CG17377 | DRSC00950 | – | 3.41e5 | 3.16e5 |
| CG17377 | DRSC02615 | – | 1.02e5 | 93833 |
| Mi-2 | DRSC11222 | – | 84110 | 72367 |
| Gbeta76C | DRSC11174 | – | 28757 | 28220 |
| Irk3 | DRSC02047 | – | 43367 | 63043 |
| ERR | DRSC10840 | – | 36043 | 40253 |
| CG14327 | DRSC14806 | – | 68890 | 72420 |
| Pdh | DRSC11249 | – | 20987 | 26253 |
| Mhc | DRSC03367 | – | 40510 | 83090 |
| Rab23 | DRSC12305 | – | 71913 | 63930 |
| CG32590 | DRSC19594 | – | 3.30e5 | 2.72e5 |
| RpL35 | DRSC18347 | – | 22410 | 35790 |

Already shown: 5 of the entries above.
| target gene | dsRNA | SD above plate mean | raw ATP luminescence, replicate 1 | raw ATP luminescence, replicate 2 |
| --- | --- | --- | --- | --- |
| caps | DRSC11333 | – | 78723 | 56787 |
| Dyb | DRSC07208 | – | 55470 | 62467 |
| CG31145 | DRSC13634 | – | 2.10e5 | 1.89e5 |
| CG31145 | DRSC14206 | – | 54810 | 56770 |
| CG31145 | DRSC14670 | – | 20550 | 20250 |
